Some of the results follow. The calls rarely recur for the same compound in another form.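 Kinases, fused to nanoluciferase, were expressed in K562 cells; luminescence was measured every 4 h from 2 to 18 h as percent of control (DMSO = 100%, positive control = 0%). A time point is decreased if signal falls significantly (2 sigma). Hits were called by the authors by a rule that is not shown; the count of time points alone does not decide it.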
Columns and labels:
Assay in all cases: number of time points (of 5) at which kinase-Nluc abundance scored as decreased, DMSO-normalised (count); higher = more persistent destabilization
Settings in all cases: K562; 2-18 h
EPHA2 = EPHA2 (UniProt P29317)
ERBB3 = ERBB3 (UniProt P21860)
[1] = biological target: ERBB4_R711C (clone: ERBB4_mut) (UniProt Q15303)
ERN1 = ERN1 (UniProt O75460)
FGFR1 = FGFR1 (UniProt P11362)
FGFR2 = FGFR2 (UniProt P21802)
FGFR3 = FGFR3 (UniProt P22607)
FGR = FGR (UniProt P09769)
FLT3 = FLT3 (UniProt P36888)
FYN = FYN (UniProt P06241)
GSK3A = GSK3A (UniProt P49840)
HER2 = HER2 (UniProt P04626)
INSRR = INSRR (UniProt P14616)
IRAK3 = IRAK3 (UniProt Q9Y616)
JAK1 = JAK1 (UniProt P23458)
LIMK1 = LIMK1 (UniProt P53667)
LIMK2 = LIMK2 (UniProt P53671)
LCK = LCK (UniProt P06239)

Amino acid sequences for entries named in this document (tags omitted). A change or cut given only in a name is not applied to a line headed by its entry.
UniProt P11362, whole entry, looked up: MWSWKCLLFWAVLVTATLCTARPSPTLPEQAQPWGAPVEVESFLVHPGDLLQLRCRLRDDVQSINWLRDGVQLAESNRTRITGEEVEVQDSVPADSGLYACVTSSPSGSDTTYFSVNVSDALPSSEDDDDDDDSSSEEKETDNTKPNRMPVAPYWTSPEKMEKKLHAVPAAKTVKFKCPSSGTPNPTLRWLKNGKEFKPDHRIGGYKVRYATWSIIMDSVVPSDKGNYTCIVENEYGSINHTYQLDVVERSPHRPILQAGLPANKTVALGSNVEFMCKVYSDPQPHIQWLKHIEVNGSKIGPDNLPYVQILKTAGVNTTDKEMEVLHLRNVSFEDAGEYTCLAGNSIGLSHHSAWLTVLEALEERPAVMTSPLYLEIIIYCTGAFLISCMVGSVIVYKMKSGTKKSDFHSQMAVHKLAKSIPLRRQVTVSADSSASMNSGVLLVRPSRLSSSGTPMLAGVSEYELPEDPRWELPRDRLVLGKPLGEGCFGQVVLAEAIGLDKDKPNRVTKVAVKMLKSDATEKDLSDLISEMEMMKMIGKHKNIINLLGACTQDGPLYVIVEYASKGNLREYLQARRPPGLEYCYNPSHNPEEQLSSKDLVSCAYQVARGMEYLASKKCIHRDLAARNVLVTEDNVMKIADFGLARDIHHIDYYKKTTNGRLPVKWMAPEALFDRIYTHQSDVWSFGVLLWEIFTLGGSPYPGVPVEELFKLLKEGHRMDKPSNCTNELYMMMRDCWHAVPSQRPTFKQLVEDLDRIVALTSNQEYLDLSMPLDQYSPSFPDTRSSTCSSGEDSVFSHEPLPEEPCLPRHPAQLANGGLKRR
UniProt P21802, whole entry, looked up: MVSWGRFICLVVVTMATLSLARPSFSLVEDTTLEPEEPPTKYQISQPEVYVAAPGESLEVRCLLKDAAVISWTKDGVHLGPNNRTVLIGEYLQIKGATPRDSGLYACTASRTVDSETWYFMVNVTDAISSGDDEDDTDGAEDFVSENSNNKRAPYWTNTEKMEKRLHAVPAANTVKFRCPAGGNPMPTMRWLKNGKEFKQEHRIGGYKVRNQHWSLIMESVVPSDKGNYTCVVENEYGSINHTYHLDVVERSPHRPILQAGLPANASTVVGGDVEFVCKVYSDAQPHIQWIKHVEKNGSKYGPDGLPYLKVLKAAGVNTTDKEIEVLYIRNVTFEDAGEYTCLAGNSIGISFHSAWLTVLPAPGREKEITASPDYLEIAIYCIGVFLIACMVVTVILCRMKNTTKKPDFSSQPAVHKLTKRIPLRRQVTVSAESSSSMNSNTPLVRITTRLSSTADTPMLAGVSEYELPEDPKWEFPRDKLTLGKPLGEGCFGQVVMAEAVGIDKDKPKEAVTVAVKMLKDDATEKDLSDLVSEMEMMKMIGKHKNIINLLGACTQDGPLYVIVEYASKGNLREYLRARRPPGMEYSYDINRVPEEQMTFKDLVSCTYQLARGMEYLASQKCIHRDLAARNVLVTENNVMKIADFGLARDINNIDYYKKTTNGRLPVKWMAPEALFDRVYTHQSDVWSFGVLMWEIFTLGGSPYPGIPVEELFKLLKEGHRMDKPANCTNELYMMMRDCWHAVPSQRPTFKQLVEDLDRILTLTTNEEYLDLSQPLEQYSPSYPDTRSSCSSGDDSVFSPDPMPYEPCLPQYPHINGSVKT
UniProt P36888, whole entry: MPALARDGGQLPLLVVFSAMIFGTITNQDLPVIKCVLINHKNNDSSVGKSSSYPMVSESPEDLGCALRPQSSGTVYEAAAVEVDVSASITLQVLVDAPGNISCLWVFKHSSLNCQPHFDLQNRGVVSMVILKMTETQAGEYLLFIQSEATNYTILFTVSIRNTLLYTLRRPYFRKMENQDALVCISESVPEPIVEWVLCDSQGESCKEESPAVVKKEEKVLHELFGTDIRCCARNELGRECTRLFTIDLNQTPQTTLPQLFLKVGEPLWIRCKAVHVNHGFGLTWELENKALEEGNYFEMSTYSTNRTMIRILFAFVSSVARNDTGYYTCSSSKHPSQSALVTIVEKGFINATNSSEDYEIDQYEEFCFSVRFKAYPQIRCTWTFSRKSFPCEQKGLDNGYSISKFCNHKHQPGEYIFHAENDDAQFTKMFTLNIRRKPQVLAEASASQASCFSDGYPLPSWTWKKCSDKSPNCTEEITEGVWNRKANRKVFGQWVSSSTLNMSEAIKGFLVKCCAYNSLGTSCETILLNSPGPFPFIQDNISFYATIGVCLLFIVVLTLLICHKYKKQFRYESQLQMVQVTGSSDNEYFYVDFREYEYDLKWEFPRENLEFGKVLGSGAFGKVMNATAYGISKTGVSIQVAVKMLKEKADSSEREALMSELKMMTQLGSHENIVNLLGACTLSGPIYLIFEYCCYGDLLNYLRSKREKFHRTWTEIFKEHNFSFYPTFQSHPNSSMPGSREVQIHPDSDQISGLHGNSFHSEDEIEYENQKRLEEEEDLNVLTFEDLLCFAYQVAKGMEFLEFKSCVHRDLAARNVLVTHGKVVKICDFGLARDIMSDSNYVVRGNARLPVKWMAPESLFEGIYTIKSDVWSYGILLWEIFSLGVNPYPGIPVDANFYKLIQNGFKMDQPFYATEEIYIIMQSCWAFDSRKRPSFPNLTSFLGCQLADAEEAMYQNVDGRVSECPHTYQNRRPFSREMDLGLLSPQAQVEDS
UniProt P49840: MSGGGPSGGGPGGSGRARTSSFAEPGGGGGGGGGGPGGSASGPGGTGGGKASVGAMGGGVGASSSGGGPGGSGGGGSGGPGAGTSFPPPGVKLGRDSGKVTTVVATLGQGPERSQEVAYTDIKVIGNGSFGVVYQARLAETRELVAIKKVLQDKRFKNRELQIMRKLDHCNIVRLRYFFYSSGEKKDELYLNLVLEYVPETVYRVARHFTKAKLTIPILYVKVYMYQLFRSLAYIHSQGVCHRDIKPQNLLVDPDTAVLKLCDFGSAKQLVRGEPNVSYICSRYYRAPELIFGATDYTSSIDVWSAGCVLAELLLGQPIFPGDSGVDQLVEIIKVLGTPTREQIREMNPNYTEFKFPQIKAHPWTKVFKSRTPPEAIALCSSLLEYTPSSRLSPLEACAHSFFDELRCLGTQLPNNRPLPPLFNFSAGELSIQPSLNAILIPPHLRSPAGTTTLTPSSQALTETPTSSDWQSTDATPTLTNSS
UniProt P14616: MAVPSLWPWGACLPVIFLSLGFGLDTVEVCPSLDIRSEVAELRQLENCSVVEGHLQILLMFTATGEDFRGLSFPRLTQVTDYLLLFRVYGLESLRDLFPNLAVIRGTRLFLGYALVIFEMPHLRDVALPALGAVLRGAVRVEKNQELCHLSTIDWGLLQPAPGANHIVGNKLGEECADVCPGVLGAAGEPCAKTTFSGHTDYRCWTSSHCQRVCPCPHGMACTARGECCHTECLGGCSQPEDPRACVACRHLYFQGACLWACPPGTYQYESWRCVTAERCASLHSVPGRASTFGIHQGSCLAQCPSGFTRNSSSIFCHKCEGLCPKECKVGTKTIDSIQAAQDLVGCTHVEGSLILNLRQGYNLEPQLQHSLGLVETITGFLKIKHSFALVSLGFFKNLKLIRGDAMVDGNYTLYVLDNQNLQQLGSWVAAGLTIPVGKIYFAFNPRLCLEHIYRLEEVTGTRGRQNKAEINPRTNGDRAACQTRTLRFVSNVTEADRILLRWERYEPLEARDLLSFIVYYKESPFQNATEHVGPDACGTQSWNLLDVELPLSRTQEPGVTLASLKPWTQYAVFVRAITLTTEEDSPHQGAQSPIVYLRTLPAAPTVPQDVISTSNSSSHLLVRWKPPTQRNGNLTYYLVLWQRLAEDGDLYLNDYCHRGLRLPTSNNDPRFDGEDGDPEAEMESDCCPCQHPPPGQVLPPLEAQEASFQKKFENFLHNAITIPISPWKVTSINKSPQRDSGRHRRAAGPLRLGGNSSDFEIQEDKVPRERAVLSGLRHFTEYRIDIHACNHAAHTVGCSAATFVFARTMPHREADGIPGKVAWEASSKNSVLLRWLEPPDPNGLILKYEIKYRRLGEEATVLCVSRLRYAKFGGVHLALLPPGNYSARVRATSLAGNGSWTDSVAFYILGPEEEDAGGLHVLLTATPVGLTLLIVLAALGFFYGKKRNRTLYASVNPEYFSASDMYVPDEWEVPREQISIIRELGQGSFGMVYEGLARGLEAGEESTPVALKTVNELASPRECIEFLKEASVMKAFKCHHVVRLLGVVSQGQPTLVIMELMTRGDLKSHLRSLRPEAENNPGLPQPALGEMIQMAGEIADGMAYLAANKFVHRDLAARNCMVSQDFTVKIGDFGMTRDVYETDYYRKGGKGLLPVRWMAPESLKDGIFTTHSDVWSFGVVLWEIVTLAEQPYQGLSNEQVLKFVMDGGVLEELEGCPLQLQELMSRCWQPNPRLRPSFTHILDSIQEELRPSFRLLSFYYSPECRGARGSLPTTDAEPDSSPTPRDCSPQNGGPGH
UniProt Q9Y616: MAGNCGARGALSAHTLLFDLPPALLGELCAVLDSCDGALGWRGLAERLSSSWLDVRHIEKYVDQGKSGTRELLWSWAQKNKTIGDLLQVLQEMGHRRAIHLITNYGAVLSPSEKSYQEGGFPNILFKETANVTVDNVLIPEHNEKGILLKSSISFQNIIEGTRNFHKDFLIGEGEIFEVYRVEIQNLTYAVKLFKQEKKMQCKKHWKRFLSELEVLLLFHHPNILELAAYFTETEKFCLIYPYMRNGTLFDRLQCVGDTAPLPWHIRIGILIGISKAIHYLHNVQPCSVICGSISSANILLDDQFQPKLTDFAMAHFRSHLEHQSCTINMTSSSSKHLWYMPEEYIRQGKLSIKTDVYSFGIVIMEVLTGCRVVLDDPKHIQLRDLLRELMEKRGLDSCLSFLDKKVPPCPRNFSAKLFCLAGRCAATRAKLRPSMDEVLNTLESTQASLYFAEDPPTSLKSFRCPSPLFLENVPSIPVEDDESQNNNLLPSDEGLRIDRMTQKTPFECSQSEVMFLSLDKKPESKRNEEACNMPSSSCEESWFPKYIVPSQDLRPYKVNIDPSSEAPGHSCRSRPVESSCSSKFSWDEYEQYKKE
UniProt P23458: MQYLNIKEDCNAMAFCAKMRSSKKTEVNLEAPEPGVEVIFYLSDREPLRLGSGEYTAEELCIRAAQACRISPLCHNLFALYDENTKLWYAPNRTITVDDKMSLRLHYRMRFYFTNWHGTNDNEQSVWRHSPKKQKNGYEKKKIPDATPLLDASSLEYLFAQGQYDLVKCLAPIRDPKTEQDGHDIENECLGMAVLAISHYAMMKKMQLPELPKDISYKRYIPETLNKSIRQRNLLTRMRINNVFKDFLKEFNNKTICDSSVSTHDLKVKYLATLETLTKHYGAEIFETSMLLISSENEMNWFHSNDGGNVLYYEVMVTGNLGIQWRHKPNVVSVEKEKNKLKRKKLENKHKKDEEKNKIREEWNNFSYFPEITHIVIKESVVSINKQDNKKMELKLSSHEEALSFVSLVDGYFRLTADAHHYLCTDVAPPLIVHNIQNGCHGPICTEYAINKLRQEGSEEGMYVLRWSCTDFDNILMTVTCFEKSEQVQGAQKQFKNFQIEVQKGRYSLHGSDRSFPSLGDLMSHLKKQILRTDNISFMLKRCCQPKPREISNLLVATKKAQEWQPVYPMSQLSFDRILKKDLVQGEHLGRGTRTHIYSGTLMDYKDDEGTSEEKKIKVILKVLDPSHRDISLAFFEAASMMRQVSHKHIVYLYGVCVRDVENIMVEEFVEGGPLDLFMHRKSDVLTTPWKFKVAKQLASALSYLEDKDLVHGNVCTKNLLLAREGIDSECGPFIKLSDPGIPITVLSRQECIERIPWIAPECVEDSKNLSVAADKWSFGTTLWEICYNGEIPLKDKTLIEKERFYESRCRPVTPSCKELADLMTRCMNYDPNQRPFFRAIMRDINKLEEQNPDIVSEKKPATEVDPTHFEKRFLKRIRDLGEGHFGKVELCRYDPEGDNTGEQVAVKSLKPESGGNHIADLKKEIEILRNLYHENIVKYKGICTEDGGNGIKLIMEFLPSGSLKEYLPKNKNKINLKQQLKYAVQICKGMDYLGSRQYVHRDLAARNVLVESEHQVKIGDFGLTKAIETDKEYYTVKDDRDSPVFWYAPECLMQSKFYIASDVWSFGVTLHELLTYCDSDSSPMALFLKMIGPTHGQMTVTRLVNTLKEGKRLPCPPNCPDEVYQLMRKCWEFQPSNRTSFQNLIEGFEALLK

SMILES | number of time points (EPHA2) | number of time points (ERBB3) | number of time points [1] | number of time points (ERN1) | number of time points (FGFR1) | number of time points (FGFR2) | number of time points (FGFR3) | number of time points (FGR) | number of time points (FLT3) | number of time points (FYN) | number of time points (GSK3A) | number of time points (HER2) | number of time points (INSRR) | number of time points (IRAK3) | number of time points (JAK1) | number of time points (LIMK1) | number of time points (LIMK2) | number of time points (LCK)
CCOc1ccn(-c2ccc(F)cc2)c(=O)c1C(=O)Nc1ccc(Oc2ccnc(N)c2Cl)c(F)c1 (10 µM) | 0 | 3 | 3 | 2 | 2 | 2 | 0 | 0 | 1 | 2 | 0 | 1 | 5 | 1 | 2 | 0 | 0 | 
Cc1c[nH]c2nccc(Oc3c(F)cc(Nc4cc(Cl)nc(N)n4)cc3F)c12 (10 µM) | 0 | 2 | 1 | 0 | 0 | 0 | 0 | 0 | 4 | 0 | 0 | 2 | 4 | 0 | 1 | 0 | 0 | 0
Cc1c(C(=O)N2CCOc3ccc(-c4ccc(N)nc4)cc3C2)ccc(S(C)(=O)=O)c1F (10 µM) | 0 | 0 | 3 | 0 | 0 | 3 | 0 | 0 | 0 | 0 | 0 | 0 | 0 | 0 | 0 | 2 | 0 | 0
CN(c1ncccc1CNc1nc(Nc2ccc3c(c2)CC(=O)N3)ncc1C(F)(F)F)S(C)(=O)=O (2.5 µM) | 0 | 3 | 3 | 0 | 0 | 3 | 0 | 0 | 2 | 0 | 0 | 0 | 3 | 3 | 3 | 0 | 0 | 
Cc1c(Cn2c(C)nc3c(C(=O)O)cc(N4CCOCC4)cc32)cccc1C(F)(F)F (10 µM) | 0 | 0 | 0 |  | 0 | 0 | 0 |  | 0 | 0 | 0 | 0 | 0 | 0 | 0 | 0 | 0 | 0
O=c1oc2ccccc2c(O)c1Cc1c(O)c2ccccc2oc1=O [Dicoumarol] (10 µM) | 0 | 0 | 0 | 0 | 0 | 0 | 0 | 0 | 0 | 0 | 0 | 1 | 0 | 0 | 0 | 0 | 0 | 
COc1cc2c(Nc3ccc(Br)cc3F)ncnc2cc1OCCn1ccnn1 (10 µM) | 0 | 0 | 0 | 0 | 0 | 0 | 0 | 0 | 0 | 0 | 0 | 0 | 0 | 0 | 0 | 0 | 0 | 0
CCN(CC)CCCCNc1ncc2cc(-c3c(Cl)cccc3Cl)c(NC(=O)NC(C)(C)C)nc2n1 (2.5 µM) | 0 | 0 | 0 | 0 | 0 | 4 | 0 | 0 | 0 | 0 | 1 | 2 | 0 | 0 | 0 | 4 | 2 | 0
CCN(CCO)CCCOc1ccc2c(Nc3cc(CC(=O)Nc4cccc(F)c4)[nH]n3)ncnc2c1 [Barasertib-HQPA] (10 µM) | 0 | 0 | 1 | 0 | 0 | 0 | 0 | 0 | 0 | 0 | 0 | 0 | 0 | 0 | 0 | 0 | 0 | 
Nc1ncnc2c1c(-c1ccc(Oc3ccccc3)cc1)cn2C1CCCC1 (2.5 µM) | 0 | 0 | 0 | 0 | 0 | 0 | 0 | 0 | 0 | 0 | 0 | 0 | 1 | 0 | 0 | 0 | 0 | 
Oc1ccc(-c2nc(-c3ccc(F)cc3)c(-c3ccncc3)[nH]2)cc1 (2.5 µM) | 0 | 0 | 0 | 0 | 0 | 0 | 0 | 0 | 0 | 0 | 0 | 0 | 0 | 0 | 0 | 0 | 0 | 0
Cc1cc(C)c(/C=C2\C(=O)Nc3ccccc32)[nH]1 [Semaxinib] (10 µM) | 0 | 0 | 0 | 0 | 0 | 0 | 0 | 0 | 0 | 0 | 0 | 0 | 0 | 0 | 0 | 0 | 1 | 
CC(=O)NCC(=O)N1[C@@H]2CC[C@H]1c1ccc(Nc3ncc(C(F)(F)F)c(NC4CCC4)n3)cc12 (2.5 µM) | 2 | 4 | 4 | 0 | 2 | 3 | 2 | 0 | 1 | 3 | 1 | 3 | 1 | 3 | 1 | 4 | 0 | 0
COc1cc(C=C(C#N)C(N)=O)cc(CSc2nc3ccccc3s2)c1O (10 µM) | 0 | 0 | 0 | 0 | 0 | 0 | 0 | 0 | 0 | 0 | 0 | 0 | 0 | 0 | 0 | 0 | 0 | 0

Limited to number of time points (FGFR1), number of time points (FGR) and number of time points (IRAK3), for some of the entries so far:
SMILES	number of time points (FGFR1)	number of time points (FGR)	number of time points (IRAK3)
CCOc1ccn(-c2ccc(F)cc2)c(=O)c1C(=O)Nc1ccc(Oc2ccnc(N)c2Cl)c(F)c1 (10 µM)	2	0	1
Cc1c(Cn2c(C)nc3c(C(=O)O)cc(N4CCOCC4)cc32)cccc1C(F)(F)F (10 µM)	0		0

— the supplement of paper PMC12823440, “Inhibitors supercharge kinase turnover through native proteolytic circuits” (Nature, 2025)
